PubChem BioAssay AID720505, Drosophila RNAi Screening Center, 2013

- Screen: 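Genes needed for store-operated calcium entry in fly cells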 (primary screen)
- System: Drosophila S2R+ cells
- Knock-down reagent: long dsRNA against Drosophila genes
- Conditions: thapsigargin (2 µM) in calcium-free buffer to empty internal stores, then 2 mM calcium added back
- Read-out: 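Fluo-4 signal in 384-well plates read on a FLIPR after thapsigargin (2 µM, calcium-free) store depletion and 2 mM calcium add-back; unnormalised mean endpoint per well; screen run twice, selected wells retested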
- Direction: calcium signal and retest calcium signal: higher = more calcium entry after store depletion
- Active means: 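About 1500 genes called as lowering calcium entry, by varying amounts, judged against per-plate control wells with STIM1 as positive and Rho1 as negative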
- Calls: active = called as lowering calcium entry; inactive = not called
The screen tested about 20,000 reagents; shown is an unselected part of those with a known target gene and a result. Over the whole deposit, about 2,100 (10%) got an active call. 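Raw plate signals without normalisation; calls rest on control-based scores that were not deposited; replicate 2 separates called from uncalled poorly.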 Unmarked entries are inactive. The numbers tell different reagents against one gene apart. Names joined by + are all predicted targets of the reagent. The record does not give: the amount of reagent, the time to read-out.

Target gene	reagent no.	calcium signal, replicate 1	calcium signal, replicate 2	retest calcium signal, replicate 1	retest calcium signal, replicate 2
Tsp42Eg (GeneID 35616)	1	152	137		
Jig (GeneID 41762)	1	124	120		
CG43338 (GeneID 35117)	1	78.1	197		
CG30075 (GeneID 246437)	1	110	85.5		
CG32241 (GeneID 317934)	1	5206	113		
CG32241 (GeneID 317934)	2	170	125		
CG31600 (GeneID 318834)	1	74.3	160		
CG32683 (GeneID 31970)	1	65.4 (active)	75.7		
CG32683 (GeneID 31970)	2	67.9	85.3		
CG32683 (GeneID 31970)	3	64.7	96.5		
CG4646 (GeneID 36459)	1	108	168		
beat-IIIa (GeneID 35035)	1	173	86		
beat-IIIa (GeneID 35035)	2	151	97.4		
beat-IIIa (GeneID 35035)	3	81.5	182		
Xpac (GeneID 31357)	1	193	112		
CG15093 (GeneID 37166)	1	156	120		
S1P (GeneID 40399)	1	114	204		
RhoGEF64C (GeneID 38578)	1	101	78.4		
RhoGEF64C (GeneID 38578)	2	88.9	89.5		
CG8547 (GeneID 36586)	1	177	150		
lncRNA:CR42862 (GeneID 10178964)	1	143	91.5		
CG15209 (GeneID 32011)	1	97.6	118		
Zip88E (GeneID 41847)	1	66.3	101		
Cpr64Ad (GeneID 38511)	1	99.7	77.6		
CG6980 (GeneID 42955)	1	157	206		
Paip2 (GeneID 41591)	1	106	160		
CG6055 (GeneID 34027)	1	167	99.4		
E(spl)m2-BFM (GeneID 43155)	1	196	144		
E(spl)m2-BFM (GeneID 43155)	2	120	113		
NaPi-T (GeneID 36651)	1	144	192		
CG6357 (GeneID 36532)	1	237	146		
moon (GeneID 32176)	1	135	97.2		
CG2747 (GeneID 40950)	1	90	181		
CG7044 (GeneID 42497)	1	138	128		
lectin-46Ca (GeneID 53523)	1	148	150	75.9	108
yrt (GeneID 41656)	1	120	140		
CG30095 (GeneID 246453)	1	121	127		
GlnRS (GeneID 45786)	1	97	90.1		

Next part; the last 13 above are carried over.
Target gene	reagent no.	calcium signal, replicate 1	calcium signal, replicate 2	retest calcium signal, replicate 1	retest calcium signal, replicate 2
Paip2 (GeneID 41591)	1	106	160		
CG6055 (GeneID 34027)	1	167	99.4		
E(spl)m2-BFM (GeneID 43155)	1	196	144		
E(spl)m2-BFM (GeneID 43155)	2	120	113		
NaPi-T (GeneID 36651)	1	144	192		
CG6357 (GeneID 36532)	1	237	146		
moon (GeneID 32176)	1	135	97.2		
CG2747 (GeneID 40950)	1	90	181		
CG7044 (GeneID 42497)	1	138	128		
lectin-46Ca (GeneID 53523)	1	148	150	75.9	108
yrt (GeneID 41656)	1	120	140		
CG30095 (GeneID 246453)	1	121	127		
GlnRS (GeneID 45786)	1	97	90.1		
Klp98A (GeneID 43310)	1	66.7 (active)	67.1		
Klp98A (GeneID 43310)	2	57.4 (active)	179		
AttC (GeneID 36484)	1	178	179		
mas (GeneID 38499)	1	64.3 (active)	112		
CG17746 (GeneID 38400)	1	98.8	83.4		
CG17746 (GeneID 38400)	2	96.6	137		
sowi (GeneID 40809)	1	116	195		
CG9452 (GeneID 40119)	1	126	180		
CG9452 (GeneID 40119)	2	106	158		
Diap1 (GeneID 39753)	1	25.4 (active)	33.3		
Pfk (GeneID 36060)	1	158	140		
CG32444 (GeneID 40406)	1	127	96.4		
CG8611 (GeneID 32725)	1	94.8	136		
nudC (GeneID 39879)	1	103	193		
nudC (GeneID 39879)	2	95.2	194		
Gclc (GeneID 53581)	1	165	127		
CG13332 (GeneID 36504)	1	107	210		
MED25 (GeneID 42385)	1	143	211		
MED25 (GeneID 42385)	2	102	91.4		
CG12860 (GeneID 36629)	1	105	165		
betaTub56D (GeneID 37238)	1	138	112		
Vha100-2 (GeneID 42216)	1	146	299		
CG3704 (GeneID 31043)	1	84.7	144		
CG3704 (GeneID 31043)	2	72.8	129		
CG5770 (GeneID 37054)	1	114	110		
CG13992 (GeneID 33831)	1	198	92.9		
sxc (GeneID 35486)	1	143	185		
Atg3 (GeneID 40044)	1	110	85.5	163	146
Atg3 (GeneID 40044)	2	157	112		
Pih1D1 (GeneID 34685)	1	76.3	158		
CG12020 (GeneID 38233)	1	104	94		
lama (GeneID 38610)	1	110	104		
RpL26 (GeneID 40060)	1	73.1	92.6		
peg (GeneID 50050)	1	164	177		
RpL11 (GeneID 37235)	1	110	90.4		
CG9269 (GeneID 41663)	1	120	200		
CG5377 (GeneID 42645)	1	145	148		
trr (GeneID 31149)	1	139	111		
trr (GeneID 31149)	2	114	152		
CG17233 (GeneID 40220)	1	152	96.2		
CG13069 (GeneID 50271)	1	90.5	159		
HLH3B (GeneID 31249)	1	91.5	127		
Cyp9h1 (GeneID 36412)	1	95.1	204		
IFT20 + CG10395	1	97.1	162		
tsr (GeneID 37841)	1	92	161		
Prx6c (GeneID 36098)	1	118	126		
CG9497 (GeneID 33884)	1	159	192		
eIF2gamma + Su(var)3-9	1	125	135		
KCNQ (GeneID 36071)	1	169	130		
KCNQ (GeneID 36071)	2	83.7	91.2		
ps (GeneID 44258)	1	91.3	81.8		
ps (GeneID 44258)	2	97.4	82.2		
ps (GeneID 44258)	3	125	83.9		
ps (GeneID 44258)	4	111	77.9		
ps (GeneID 44258)	5	44 (active)	78.7		
CG13771 (GeneID 33933)	1	134	114		
CG16926 (GeneID 50205)	1	142	134		
CG9330 (GeneID 40131)	1	117	122		
lva (GeneID 31350)	1	69.4	132		
MED21 (GeneID 3354977)	1	76.9 (active)	243		
Ilp8 (GeneID 39909)	1	117	176		
CG7031 (GeneID 42704)	1	82.2 (active)	116		
CG7031 (GeneID 42704)	2	66.7	113		
Hcs (GeneID 40659)	1	124	166		
Cyp4d21 (GeneID 34036)	1	150	198		
CG33462 (GeneID 2768841)	1	126	148		
Stacl (GeneID 5740318)	1	68.2 (active)	126		
Stacl (GeneID 5740318)	2	95.1	162		
Stacl (GeneID 5740318)	3	104	142		
Stacl (GeneID 5740318)	4	111	206		
Stacl (GeneID 5740318)	5	105	88.2	71	107
Stacl (GeneID 5740318)	6	125	158		
Stacl (GeneID 5740318)	7	106	77.9		
